Assay results reported in US6387956B1, “Methods of treating obsessive-compulsive spectrum disorders” (University of Cincinnati, priority 1999, dated 2002).
At least one compound was matched to its structure with a doubt left.

System: Tourette's syndrome
Test: Example 4: case of a patient with major depressant disorder and Tourette's syndrome, motor tics
Type: in vivo
Settings: after about two weeks
Method: A patient with a history of recurrent major depressant disorder was treated with extended release bupropion (1-(3-chlorophenyl)-2-[(1,1-dimethylethyl)amino]-1-[…]), at a total dose of 300 mg per day (200 mg in the morning and 100 mg in the evening). […] The patient also reported a history of purging. […] The patient was diagnosed as having major depressant disorder and Tourette's syndrome.
The bupropion was supplemented with 50 mg twice a day of tramadol. […] The patient estimated that the number of tics was reduced by about two-thirds after starting the tramadol. The patient's bupropion dose was increased to 400 mg per day (200 mg twice a day), while the tramadol dose was maintained at 50 mg twice a day. The patient was informed the tramadol dose could be increased to 50 mg four times a day if the number of tics increased.

COc1cccc([C@]2(O)CCCC[C@H]2CN(C)C)c1 (racemic) [tramadol, (±)cis-2-[(dimethylamino)methyl]-1(3-methoxyphenyl) cyclohexanol]
reduction in number of tics, patient estimate (50 mg twice a day added to bupropion 300 mg per day): about two-thirds | level of depression, patient reported (50 mg twice a day added to bupropion): no major change
